PubChem BioAssay AID504774 – Drosophila RNAi Screening Center | 2011

Assay: 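Genes required for cells to withstand methyl methanesulphonate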 (primary screen)
Cells: Drosophila Kc167 cells
Knock-down reagent: long dsRNA against Drosophila genes, about 0.25 µg dsRNA per well
Time to read-out: about 6 days: 3 days knock-down, then 3 days with or without MMS
Treatment: methyl methanesulphonate 0.004% (w/v) for 3 days after knock-down
Measured: 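ATP-dependent luminescence as a measure of live cells in MMS-exposed wells, quantile normalised within each plate, with replicate values also given as a mean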
Reading the numbers: mean viability with MMS and viability with MMS: higher = more surviving cells after MMS
The deposit covers about 23,000 reagents; below is an unselected part of those with a known target gene and a result. 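Values are quantile-normalised luminescence on an arbitrary scale; higher means more cells surviving MMS.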 A plus sign joins genes that one reagent is predicted to hit. Not all columns of the deposit are shown. No sequences are given here.

CG10651 [DRSC02086] — mean viability with MMS: 3.51e6; viability with MMS, replicate 1: 3.94e6
AstC-R2 [DRSC10051] — mean viability with MMS: 3.51e6; viability with MMS, replicate 1: 3.94e6
kar [DRSC14496] — mean viability with MMS: 3.64e6; viability with MMS, replicate 1: 4.17e6
mask [DRSC15370] — mean viability with MMS: 3.28e6; viability with MMS, replicate 1: 3.73e6
mask [DRSC16005] — mean viability with MMS: 3.25e6; viability with MMS, replicate 1: 3.79e6
mask [DRSC16018] — mean viability with MMS: 3.18e6; viability with MMS, replicate 1: 3.77e6
nrv3 [DRSC03097] — mean viability with MMS: 2.08e6; viability with MMS, replicate 1: 4.23e6
rdgA [DRSC17863] — mean viability with MMS: 3.30e6; viability with MMS, replicate 1: 3.72e6
rdgA [DRSC18036] — mean viability with MMS: 3.42e6; viability with MMS, replicate 1: 3.94e6
rdgA [DRSC18827] — mean viability with MMS: 3.06e6; viability with MMS, replicate 1: 3.95e6
Sry-beta [DRSC16868] — mean viability with MMS: 3.54e6; viability with MMS, replicate 1: 4.05e6
Rpt1 [DRSC07542] — mean viability with MMS: 2.84e6; viability with MMS, replicate 1: 3.52e6
Pstk + Tim9b [DRSC19504] — mean viability with MMS: 3.52e6; viability with MMS, replicate 1: 4.07e6
Pstk + Tim9b [DRSC20292] — mean viability with MMS: 3.48e6; viability with MMS, replicate 1: 3.88e6

Only “viability with MMS, replicate 1” (2 entries from above):
CG10651 [DRSC02086] = 3.94e6
AstC-R2 [DRSC10051] = 3.94e6
